Test results: the supplement of paper PMC10849652
The other results are listed elsewhere or left out.

Chains of the proteins cited; added tags and fusions are not shown. Lines headed by an entry give the natural chain unless they say otherwise; changes in a name come on top.
UniProt Q9NX76: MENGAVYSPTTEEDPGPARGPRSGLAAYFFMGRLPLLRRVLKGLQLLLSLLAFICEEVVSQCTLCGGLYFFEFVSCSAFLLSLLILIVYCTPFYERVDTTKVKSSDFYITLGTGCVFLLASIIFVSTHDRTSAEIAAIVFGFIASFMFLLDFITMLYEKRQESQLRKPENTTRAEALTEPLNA
UniProt Q7Z460: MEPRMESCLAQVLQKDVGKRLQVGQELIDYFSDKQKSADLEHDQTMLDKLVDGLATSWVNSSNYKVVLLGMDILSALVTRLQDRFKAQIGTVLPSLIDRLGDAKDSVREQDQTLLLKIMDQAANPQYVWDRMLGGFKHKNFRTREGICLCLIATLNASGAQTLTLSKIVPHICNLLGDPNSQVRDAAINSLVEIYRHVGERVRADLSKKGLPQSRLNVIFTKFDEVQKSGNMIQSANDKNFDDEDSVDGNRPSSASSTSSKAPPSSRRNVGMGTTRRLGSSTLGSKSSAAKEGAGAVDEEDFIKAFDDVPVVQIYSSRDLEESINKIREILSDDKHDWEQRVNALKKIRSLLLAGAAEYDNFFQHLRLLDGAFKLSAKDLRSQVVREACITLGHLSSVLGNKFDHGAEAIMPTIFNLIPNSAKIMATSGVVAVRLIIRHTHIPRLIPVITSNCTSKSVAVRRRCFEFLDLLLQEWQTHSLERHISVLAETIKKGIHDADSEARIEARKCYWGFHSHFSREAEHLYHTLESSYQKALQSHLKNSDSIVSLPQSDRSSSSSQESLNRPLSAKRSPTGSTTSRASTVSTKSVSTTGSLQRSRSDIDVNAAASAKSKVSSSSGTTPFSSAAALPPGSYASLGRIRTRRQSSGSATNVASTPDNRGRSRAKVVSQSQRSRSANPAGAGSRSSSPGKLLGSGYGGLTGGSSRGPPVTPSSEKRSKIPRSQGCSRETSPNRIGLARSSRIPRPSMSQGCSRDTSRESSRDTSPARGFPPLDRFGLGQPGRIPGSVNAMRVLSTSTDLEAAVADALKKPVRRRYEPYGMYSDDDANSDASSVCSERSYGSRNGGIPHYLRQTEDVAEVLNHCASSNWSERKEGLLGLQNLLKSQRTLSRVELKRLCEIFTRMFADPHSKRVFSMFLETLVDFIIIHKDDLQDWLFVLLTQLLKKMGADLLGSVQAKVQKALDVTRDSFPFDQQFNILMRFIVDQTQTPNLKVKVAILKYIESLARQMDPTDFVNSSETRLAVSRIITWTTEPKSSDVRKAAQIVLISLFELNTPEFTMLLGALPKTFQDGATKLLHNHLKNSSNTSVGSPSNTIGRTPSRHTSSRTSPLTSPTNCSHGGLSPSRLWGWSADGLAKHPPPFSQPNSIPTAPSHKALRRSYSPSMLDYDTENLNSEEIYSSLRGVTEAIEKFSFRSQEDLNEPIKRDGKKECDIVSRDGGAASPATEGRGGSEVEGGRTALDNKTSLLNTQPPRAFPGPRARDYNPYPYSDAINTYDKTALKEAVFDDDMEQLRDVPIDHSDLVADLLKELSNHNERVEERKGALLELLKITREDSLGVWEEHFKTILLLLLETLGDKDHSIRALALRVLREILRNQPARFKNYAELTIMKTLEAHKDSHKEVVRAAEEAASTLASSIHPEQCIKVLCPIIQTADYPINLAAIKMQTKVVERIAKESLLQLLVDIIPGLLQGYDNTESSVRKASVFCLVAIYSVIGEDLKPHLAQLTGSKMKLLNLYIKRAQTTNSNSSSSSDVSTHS
UniProt Q6FI81: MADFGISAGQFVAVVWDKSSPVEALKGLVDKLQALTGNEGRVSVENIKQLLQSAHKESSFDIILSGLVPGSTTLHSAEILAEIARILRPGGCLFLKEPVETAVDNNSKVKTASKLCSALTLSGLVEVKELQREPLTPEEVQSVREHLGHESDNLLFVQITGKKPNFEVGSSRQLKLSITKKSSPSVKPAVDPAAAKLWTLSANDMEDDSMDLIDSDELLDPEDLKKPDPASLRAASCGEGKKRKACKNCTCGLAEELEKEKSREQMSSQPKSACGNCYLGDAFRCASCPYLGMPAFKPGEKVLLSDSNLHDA
UniProt O43529: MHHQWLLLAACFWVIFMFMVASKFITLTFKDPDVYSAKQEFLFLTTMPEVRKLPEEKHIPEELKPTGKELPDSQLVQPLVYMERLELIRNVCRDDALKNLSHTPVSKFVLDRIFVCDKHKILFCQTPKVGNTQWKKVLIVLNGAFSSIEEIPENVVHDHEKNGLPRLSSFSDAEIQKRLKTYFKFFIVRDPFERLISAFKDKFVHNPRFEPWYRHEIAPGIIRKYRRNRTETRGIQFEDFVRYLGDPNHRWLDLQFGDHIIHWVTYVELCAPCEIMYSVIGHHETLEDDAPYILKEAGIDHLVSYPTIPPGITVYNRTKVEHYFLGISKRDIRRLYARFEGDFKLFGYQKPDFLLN
UniProt Q9C0A0: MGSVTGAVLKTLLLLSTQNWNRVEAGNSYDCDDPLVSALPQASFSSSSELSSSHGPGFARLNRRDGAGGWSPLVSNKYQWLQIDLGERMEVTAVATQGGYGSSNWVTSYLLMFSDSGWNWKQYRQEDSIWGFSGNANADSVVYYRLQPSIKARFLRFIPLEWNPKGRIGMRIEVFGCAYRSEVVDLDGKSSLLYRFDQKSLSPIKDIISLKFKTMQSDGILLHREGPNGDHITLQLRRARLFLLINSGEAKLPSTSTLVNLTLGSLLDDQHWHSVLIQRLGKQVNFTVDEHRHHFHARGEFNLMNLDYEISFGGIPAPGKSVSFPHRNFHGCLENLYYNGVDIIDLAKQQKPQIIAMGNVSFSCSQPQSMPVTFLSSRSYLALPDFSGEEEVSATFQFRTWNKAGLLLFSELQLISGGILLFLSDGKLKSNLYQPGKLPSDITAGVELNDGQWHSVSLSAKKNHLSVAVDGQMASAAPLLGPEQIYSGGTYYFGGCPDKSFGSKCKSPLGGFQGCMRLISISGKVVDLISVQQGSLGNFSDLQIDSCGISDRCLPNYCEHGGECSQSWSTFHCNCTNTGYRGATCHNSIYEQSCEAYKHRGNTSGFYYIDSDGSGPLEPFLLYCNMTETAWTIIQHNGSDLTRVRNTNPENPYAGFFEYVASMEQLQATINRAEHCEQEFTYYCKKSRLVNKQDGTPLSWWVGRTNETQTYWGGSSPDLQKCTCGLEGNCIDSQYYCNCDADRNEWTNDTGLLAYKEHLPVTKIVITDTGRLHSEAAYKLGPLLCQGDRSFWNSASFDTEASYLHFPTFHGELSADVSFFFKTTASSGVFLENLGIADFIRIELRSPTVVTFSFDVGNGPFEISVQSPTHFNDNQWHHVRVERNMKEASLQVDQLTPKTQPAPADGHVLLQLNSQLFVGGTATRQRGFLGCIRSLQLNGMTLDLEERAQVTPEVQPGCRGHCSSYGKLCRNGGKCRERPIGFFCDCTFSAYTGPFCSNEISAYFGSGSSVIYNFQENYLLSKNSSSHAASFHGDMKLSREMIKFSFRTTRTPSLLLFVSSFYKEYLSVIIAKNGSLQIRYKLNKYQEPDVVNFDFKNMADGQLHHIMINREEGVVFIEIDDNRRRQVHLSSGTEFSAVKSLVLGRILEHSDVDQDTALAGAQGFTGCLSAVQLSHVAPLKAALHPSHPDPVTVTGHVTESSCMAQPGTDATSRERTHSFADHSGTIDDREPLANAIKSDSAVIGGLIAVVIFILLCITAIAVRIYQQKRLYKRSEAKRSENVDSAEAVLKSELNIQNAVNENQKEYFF
UniProt Q9ULV3: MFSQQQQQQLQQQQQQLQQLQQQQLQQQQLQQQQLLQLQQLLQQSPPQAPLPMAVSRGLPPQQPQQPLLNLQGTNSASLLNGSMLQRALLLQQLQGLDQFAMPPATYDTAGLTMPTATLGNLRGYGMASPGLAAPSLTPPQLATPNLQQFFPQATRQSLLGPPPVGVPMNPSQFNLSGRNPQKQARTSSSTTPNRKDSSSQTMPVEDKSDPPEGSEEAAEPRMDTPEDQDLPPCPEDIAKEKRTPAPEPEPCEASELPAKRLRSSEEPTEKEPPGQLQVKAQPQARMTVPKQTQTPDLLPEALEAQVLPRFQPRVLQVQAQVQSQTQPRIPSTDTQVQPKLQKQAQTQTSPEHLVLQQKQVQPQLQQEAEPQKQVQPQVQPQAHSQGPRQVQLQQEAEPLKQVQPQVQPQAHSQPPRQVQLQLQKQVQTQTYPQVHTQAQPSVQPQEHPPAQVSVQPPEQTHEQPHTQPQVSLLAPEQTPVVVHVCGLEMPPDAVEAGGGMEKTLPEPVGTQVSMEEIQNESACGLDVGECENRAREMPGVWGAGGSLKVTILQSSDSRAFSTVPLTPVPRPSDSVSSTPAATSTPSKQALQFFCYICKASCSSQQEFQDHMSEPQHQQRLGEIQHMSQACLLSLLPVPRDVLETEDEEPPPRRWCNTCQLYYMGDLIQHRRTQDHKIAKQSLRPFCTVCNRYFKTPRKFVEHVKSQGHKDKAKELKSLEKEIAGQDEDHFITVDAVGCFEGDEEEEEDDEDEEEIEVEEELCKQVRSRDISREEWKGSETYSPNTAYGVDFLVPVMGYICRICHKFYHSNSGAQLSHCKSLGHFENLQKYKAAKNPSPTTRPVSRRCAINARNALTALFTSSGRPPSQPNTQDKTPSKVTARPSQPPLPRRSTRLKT
UniProt Q8WUH1: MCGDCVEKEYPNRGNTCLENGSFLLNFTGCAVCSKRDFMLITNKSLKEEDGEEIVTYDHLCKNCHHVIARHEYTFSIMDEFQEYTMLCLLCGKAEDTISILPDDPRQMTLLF
UniProt P30085: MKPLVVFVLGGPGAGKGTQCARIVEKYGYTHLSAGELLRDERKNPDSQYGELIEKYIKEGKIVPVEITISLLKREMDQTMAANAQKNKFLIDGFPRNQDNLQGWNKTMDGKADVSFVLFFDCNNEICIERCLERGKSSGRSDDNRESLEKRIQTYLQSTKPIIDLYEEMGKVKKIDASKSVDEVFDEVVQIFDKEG
UniProt Q9NRG0: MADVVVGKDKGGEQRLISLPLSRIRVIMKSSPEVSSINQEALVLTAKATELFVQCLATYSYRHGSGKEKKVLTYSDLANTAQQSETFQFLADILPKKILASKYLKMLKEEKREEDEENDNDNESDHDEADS
UniProt P61024, whole entry, looked up: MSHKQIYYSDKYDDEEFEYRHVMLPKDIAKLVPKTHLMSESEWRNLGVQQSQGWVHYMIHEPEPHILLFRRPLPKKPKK
UniProt O95628: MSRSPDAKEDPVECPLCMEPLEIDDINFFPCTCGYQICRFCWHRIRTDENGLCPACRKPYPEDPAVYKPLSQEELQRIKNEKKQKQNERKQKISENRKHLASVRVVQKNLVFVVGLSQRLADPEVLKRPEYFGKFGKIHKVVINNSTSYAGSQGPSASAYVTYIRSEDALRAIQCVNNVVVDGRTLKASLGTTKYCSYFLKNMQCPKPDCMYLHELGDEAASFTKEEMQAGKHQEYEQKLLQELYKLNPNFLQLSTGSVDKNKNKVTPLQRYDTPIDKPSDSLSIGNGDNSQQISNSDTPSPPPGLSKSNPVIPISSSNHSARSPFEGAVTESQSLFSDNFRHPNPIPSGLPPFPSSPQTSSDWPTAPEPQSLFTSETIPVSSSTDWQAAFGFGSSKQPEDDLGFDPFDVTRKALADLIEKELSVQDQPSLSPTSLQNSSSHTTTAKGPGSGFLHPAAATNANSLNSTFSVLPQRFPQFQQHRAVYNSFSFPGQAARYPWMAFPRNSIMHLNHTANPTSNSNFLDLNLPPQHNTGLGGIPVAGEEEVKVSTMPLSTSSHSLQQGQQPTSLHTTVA
UniProt Q9NZ45: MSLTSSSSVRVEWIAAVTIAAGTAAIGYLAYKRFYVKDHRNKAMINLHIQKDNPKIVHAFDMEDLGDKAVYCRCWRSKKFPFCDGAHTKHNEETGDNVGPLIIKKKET
UniProt Q99828: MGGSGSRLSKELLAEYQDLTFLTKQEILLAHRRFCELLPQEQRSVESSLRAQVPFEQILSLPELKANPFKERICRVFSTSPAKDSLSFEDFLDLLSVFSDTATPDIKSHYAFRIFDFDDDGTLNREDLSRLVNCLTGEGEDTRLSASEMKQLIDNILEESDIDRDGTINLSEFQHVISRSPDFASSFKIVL
UniProt Q9NPF2: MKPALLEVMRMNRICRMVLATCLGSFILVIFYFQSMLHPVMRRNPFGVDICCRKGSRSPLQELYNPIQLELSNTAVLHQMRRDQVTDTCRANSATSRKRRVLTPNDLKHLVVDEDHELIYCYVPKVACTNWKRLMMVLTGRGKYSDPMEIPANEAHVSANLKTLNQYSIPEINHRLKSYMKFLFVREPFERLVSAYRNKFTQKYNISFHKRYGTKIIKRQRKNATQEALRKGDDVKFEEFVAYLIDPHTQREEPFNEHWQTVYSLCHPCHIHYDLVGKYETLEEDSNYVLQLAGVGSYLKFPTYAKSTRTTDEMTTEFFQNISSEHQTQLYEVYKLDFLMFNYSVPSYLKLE

How the values were obtained:
Test in all cases: log2 fold change, soluble protein after heating vs DMSO (PISA); higher = thermal stabilisation; K562 cells, 10 uM, 30 min; active = over 0.2 and 3.5 SD of the protein, either way, in both replicates (recomputed)
[1] = compound: COC1=CC=C(C=C1)CN2C=CC3=C2C=C(C=C3)C(=O)NO
Procedure, shortened: (§1)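 K562 cells at 2×10^6 cells/mL were treated with 10 μM compound for 30 min. Aliquots were heated for 3 min across 48°C-58°C, pooled, and extracted in PBS with 0.5% NP-40 at 4°C; soluble protein was the supernatant after 21,000xg for 90 min. Soluble protein was quantified by TMTpro 16plex LC-MS/MS with channel sums equalised, and reported as log2 fold change in thermal stability against DMSO controls, with values from duplicates.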

[2] = compound: CON(C)C(=O)N1N=C(c2cc(F)ccc2F)S[C@@]1(CCCN)c1ccccc1 [filanesib]
Procedure, shortened: as §1

[3] = compound: CO[C@H]1C[C@@H]2CC[C@@H](C)[C@@](O)(O2)C(=O)C(=O)N2CCCC[C@H]2C(=O)O[C@H]([C@H](C)C[C@@H]2CC[C@H](n3cnnn3)[C@H](OC)C2)CC(=O)[C@H](C)/C=C(\C)[C@@H](O)[C@@H](OC)C(=O)[C@H](C)C[C@H](C)/C=C/C=C/C=C/1C [zotarolimus]
Procedure, shortened: as §1

[4] = compound: COc1cc(C(=O)O)ccc1NC(=O)[C@@H]1N[C@@H](CC(C)(C)C)[C@](C#N)(c2ccc(Cl)cc2F)[C@H]1c1cccc(Cl)c1F [idasanutlin]
Procedure, shortened: as §1

[5] = compound: COc1cc(Nc2ncc3c(n2)-c2ccc(Cl)cc2C(c2c(F)cccc2OC)=NC3)ccc1C(=O)O [alisertib]
Procedure, shortened: as §1

[6] = compound: COc1cc2nc(-c3cc(F)ccc3O)nc(N[C@@H]3CNC[C@H]3C(C)(C)O)c2cc1OC
Procedure, shortened: as §1

[7] = compound: COc1cc2ncnc(Nc3ccc(F)c(Cl)c3)c2cc1OCCCN1CCOCC1 [gefitinib]
Procedure, shortened: as §1

[8] = compound: COc1cccc2cc(-c3nc([C@H]4CC[C@H](C(=O)O)CC4)n4ncnc(N)c34)[nH]c12
Procedure, shortened: as §1

[9] = compound: CS(=O)(=O)CCNCc1ccc(-c2ccc3ncnc(Nc4ccc(OCc5cccc(F)c5)c(Cl)c4)c3c2)o1 [lapatinib]
Procedure, shortened: as §1

[10] = compound: CS(=O)(=O)N1CCN(Cc2cc3nc(-c4cccc5[nH]ncc45)nc(N4CCOCC4)c3s2)CC1 [pictilisib]
Procedure, shortened: as §1

Measured: log2 fold change

CMTM6 (UniProt Q9NX76)
inactive: [1] -0.105 | [2] 0.105 | [3] -0.095 | [4] -0.052 | [5] -0.161 | [6] 0.12 | [7] 0.051 | [8] 0.031 | [9] -0.076

CLASP1 (UniProt Q7Z460)
inactive: [1] 0.03 | [2] 0.117 | [3] 0.006 | [4] -0.032 | [5] -0.047 | [6] 0.173 | [7] 0.017 | [8] 0 | [9] -0.011

CNOT7 (UniProt Q9UIV1)
inactive: [1] -0.032 | [2] 0.012 | [3] 0.018 | [4] -0.008 | [5] -0.011 | [6] 0.233 | [7] 0.134 | [8] -0.067 | [9] -0.036 | [10] 0.001

CIAPIN1 (UniProt Q6FI81)
inactive: [1] 0.037 | [2] -0.043 | [3] 0.051 | [4] -0.064 | [5] -0.019 | [6] 0.036 | [7] 0 | [8] -0.014 | [9] -0.026 | [10] 0.008

CHST10 (UniProt O43529)
inactive: [1] -0.11 | [2] 0.021 | [3] 0.088 | [4] 0.062 | [5] -0.014 | [6] -0.073 | [7] -0.071 | [8] 0.088 | [9] 0.058 | [10] 0.027

CNTNAP4 (UniProt Q9C0A0)
inactive: [1] -0.231 | [2] 0.463 | [3] 0 | [4] 0.187 | [5] -0.111 | [6] -0.083 | [7] -0.014 | [8] -0.121 | [9] 0.014 | [10] -0.218

CIZ1 (UniProt Q9ULV3)
inactive: [1] 0.039 | [2] 0.04 | [3] -0.006 | [4] 0.054 | [5] -0.042 | [6] -0.106 | [7] -0.099 | [8] 0.034 | [9] 0.025 | [10] 0.05

CHURC1 isoform 2 (UniProt Q8WUH1)
inactive: [1] 0.187 | [2] -0.101 | [3] 0.025 | [4] -0.036 | [5] -0.097 | [6] 0.076 | [7] -0.022 | [8] 0.028 | [9] 0.021 | [10] 0.054

CMPK1 (UniProt P30085)
inactive: [1] -0.01 | [2] -0.029 | [3] 0.007 | [4] -0.054 | [5] -0.027 | [6] 0.002 | [7] -0.035 | [8] 0.095 | [9] -0.066 | [10] 0.094

CHRAC1 (UniProt Q9NRG0)
inactive: [1] 0.197 | [2] -0.069 | [3] -0.002 | [4] -0.122 | [5] -0.155 | [6] -0.037 | [7] 0.053 | [8] -0.024 | [9] 0.138 | [10] -0.11

CKS1B (UniProt P61024)
inactive: [1] -0.045 | [2] 0.047 | [3] 0.013 | [4] -0.011 | [5] -0.012 | [6] -0.048 | [7] -0.008 | [8] 0.031 | [9] 0.004 | [10] -0.007

CNOT4 isoform 6 (UniProt O95628)
inactive: [1] -0.057 | [2] 0.017 | [3] -0.023 | [4] -0.001 | [5] -0.036 | [6] 0.037 | [7] -0.007 | [8] -0.012 | [9] -0.008 | [10] 0.036

2 entries drawn at random from those above:
CIAPIN1 (UniProt Q6FI81)
inactive: [1] 0.037 | [2] -0.043 | [3] 0.051 | [4] -0.064 | [5] -0.019 | [6] 0.036 | [7] 0 | [8] -0.014 | [9] -0.026 | [10] 0.008

CNOT4 isoform 6 (UniProt O95628)
inactive: [1] -0.057 | [2] 0.017 | [3] -0.023 | [4] -0.001 | [5] -0.036 | [6] 0.037 | [7] -0.007 | [8] -0.012 | [9] -0.008 | [10] 0.036

(list continues)

CISD1 (UniProt Q9NZ45)
inactive: [1] 0.018 | [2] -0.03 | [3] 0.028 | [4] 0.074 | [5] -0.003 | [6] 0 | [7] -0.003 | [8] 0.041 | [9] -0.024 | [10] 0.035

CIB1 isoform 2 (UniProt Q99828)
inactive: [1] 0.133 | [2] 0.133 | [3] 0.11 | [4] -0.021 | [5] 0.129 | [6] 0.009 | [7] -0.059 | [8] -0.193 | [9] -0.018 | [10] 0.01

CHST11 (UniProt Q9NPF2)
inactive: [1] 0.153 | [2] 0.016 | [3] 0.061 | [4] -0.016 | [5] -0.248 | [6] -0.19 | [7] -0.013 | [8] 0.012 | [9] 0.297 | [10] -0.025
